Experimental data taken from patent US20110027226A1, “INDOLOPYRIDINES AS INHIBITORS OF THE KINESIN SPINDLE PROTEIN (EG5)” (4SC AG, priority 2007, published 2011).
Some of these results come from one statement about several compounds together. At least one structure is not confirmed: it was looked up by name or label, or the drawing left a doubt.

Tested on: RKO human colon adenocarcinoma cells (RKOp27 subclone, uninduced, proliferating)
Experiment: Alamar Blue cell viability assay, anti-proliferative/cytotoxic activity, RKO p27 uninduced (proliferating)
Assay type: cell-based
Details: 72 hours incubation
Description: The compounds are dissolved as 10 mM solutions in DMSO and subsequently diluted in semi-logarithmic steps. DMSO dilutions are further diluted 1:100 v:v into Dulbecco's modified Eagle's medium (DMEM) containing 10% fetal calf serum to a final concentration twice as much as the final concentration in the test. RKO subclones are seeded into 96 well flat bottom plates at a density of 4000 cells per well in a volume of 50 μl per well. 24 hours after seeding the 50 μl each of the compound dilutions in DMEM medium are added into each well of the 96 well plate. Each compound dilution is tested as triplicates. Wells containing untreated control cells are filled with 50 μl DMEM medium containing 1% DMSO. The cells are then incubated with the substances for 72 hours at 37° C. in a humidified atmosphere containing 5% carbon dioxide. To determine the viability of the cells, 10 μl of an Alamar Blue solution (Biosource) are added and the fluorescence is measured at an extinction of 544 nm and an emission of 590 nm. […] Viabilities are expressed as % values. […]
Each compound dilution is tested as triplicates. […] To determine the viability of the cells, 10 μl of an Alamar Blue solution (Biosource) are added and the fluorescence is measured at an extinction of 544 nm and an emission of 590 nm. […] Viabilities are expressed as % values. […]

With `CN1C(=O)[C@@H]2Cc3c([nH]c4ccc(F)cc34)[C@@H](c3cccc(O)c3)N2C1=O` [Example 1, (3aSR10RS)-6-Fluoro-10-(3-hydroxy-phenyl)-2-methyl-3a,4,9,10-tetrahydro-2,9,10a-triaza-cyclopenta[b]fluorene-1,3-dione] the “−log EC50 [mol/l] RKO p27 uninduced (proliferating)” value was “RKO p27 uninduced (proliferating) ≧6.0 mol/l”.
